Values of other authors as cited in patent publication US8586822B2, “Methods for producing a non human model for aortic aneurysm” (INSERM (Institut National de la Sante et de la Recherche …, priority 2007, dated 2013).
For at least one compound, name, drawing or mass did not settle the structure.

Tests used:
AAA = conditions: clinical trials, cited from earlier work
[1] = tested on: AAA in experimental animals; conditions: cited from earlier work

SMILES: C[C@H]1c2cccc(O)c2C(=O)C2=C(O)[C@]3(O)C(=O)C(C(N)=O)=C(O)[C@@H](N(C)C)[C@@H]3[C@@H](O)[C@@H]21 [doxycycline]
- expansion rate (AAA; preliminary studies): not a reduction in expansion rate
- MMP9 levels (AAA): reduction in MMP9 levels
- AAA [1]: can reduce AAA
